Reference: PubChem BioAssay AID493014 (National Center for Advancing Translational Sciences (NCATS), 2011)
Values joined by “and” are separate entries in the source; they are usually repeats but may differ in a detail not shown here. Equal entries are not always repeated. The list shows a part of the results. These are further read-outs of the screen, such as a control signal, another cell line or another target. No call is given for them. The list favours compounds with an active or inconclusive main result. Words in brackets tell the shape of the fitted curve; partial curves, single points and poor fits give uncertain potencies.

Test: qHTS Assay to Find Inhibitors of Chronic Active B-Cell Receptor Signaling
Details: ABC-DLBCL IkBa-CBG/CBR reporter, luminescence ratio (green luciferase fused to IkBa over red control in TMD8 lymphoma cells), 4 h
In short: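 Compounds up to 46 uM were incubated four hours with TMD8 cells whose green CBG68 luciferase is fused to IkappaBalpha; red CBR luminescence normalised the signal, and concentration-effect curves were fitted to fusion, red and ratio data.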

[1] = measured here: CBR red luminescence, cell number
[2] = measured here: IkBa-CBG green luminescence

Row | SMILES | AC50 [1] | AC50 [2]
1 | Cc1ccc(C(=O)/C=C/c2cn(CN3CCN(C)CC3)c3ccccc23)cc1 | 32.6 µM [falling, single point] | –
2 | O=C(NCCN1CCCC1)c1ccc2c(c1)N(Cc1ccc(F)cc1)C(=O)c1ccccc1S2=O (stereo not drawn) | 23.1 µM [falling, partial curve, poor fit] | –
3 | COc1ccc(CCN2C(=O)CC(NNC(=O)c3ccccc3Br)C2=O)cc1 (stereo not drawn) | 3.66 µM [falling, full curve, poor fit] | –
4 | O=C(Nc1cccnc1)c1sc(Nc2ccccc2)nc1-c1ccccc1 | 5.17 µM [falling, full curve, poor fit] | 20.6 µM [rising, partial curve, poor fit]
5 | Cc1cc(C)n(-c2nc(C)nc(NCc3ccccc3)n2)n1 | 0.731 µM [rising, full curve, poor fit] | –
6 | Cc1c(NC(=O)C(C)Sc2n[nH]c(N)n2)c(=O)n(-c2ccccc2)n1C (stereo not drawn) | 3.26 µM [falling, full curve, poor fit] | –
7 | Cc1cc2occ(CC(=O)N(C)CC(=O)Nc3cccc(F)c3)c2cc1C | 35.5 µM [falling, single point] | –
8 | Cc1cccc(C)c1NC(=S)N/N=C/c1ccc(OCCC(C)C)cc1 | 20.6 µM [rising, partial curve, poor fit] | –
9 | CCc1cc(=O)[nH]c(SCCc2ccccc2)n1 | 7.94 µM [falling, partial curve] | –
10 | O=C1CSC(c2cn(-c3ccccc3)nc2-c2cccs2)N1CC1CCCO1 (stereo not drawn) | 25.9 µM [falling, single point] | –
11 | Cn1ccnc1/C(=N\NC(=O)c1ccccc1)c1cccc([N+](=O)[O-])c1 | 3.98 µM [rising, full curve, poor fit] | –
12 | O=C(O)Cc1ccc(NC(=O)Nc2cccc3ccccc23)cc1 | 22.4 µM [falling, single point] | –
13 | Cc1ccc(-n2nc(C)c(NC(=O)CCl)c2C)cc1C | 18.4 µM [falling, partial curve] | –
14 | O=C1/C(=C/c2ccccc2Cl)SC(=S)N1CCC(=O)N1CCCCC1CCO (stereo not drawn) | 35.5 µM [falling, single point] | –
15 | O=C(CN1C(=O)NC2(CCCCCC2)C1=O)NCCc1ccccc1 | 11.6 µM [rising, partial curve, poor fit] | –
16 | Cc1ccc(NC(=O)Nc2ccc3c(c2)OCO3)cc1F | 0.794 µM [rising, full curve, poor fit] | –
17 | S=C(Nc1ccc(Cl)cc1)N1CCCCC1 | 8.2 µM [rising, partial curve, poor fit] | –
18 | Cc1ccccc1NC(=O)c1ccc2c(c1)N(C)CCS2 | 5.01 µM [falling, partial curve] | –
19 | Cc1ccc(OCCCSc2ncccn2)cc1C | 23.1 µM [rising, partial curve] | –
20 | C=CCNC(=S)NNC(=O)C(CCCC)CC(C)O (stereo not drawn) | 20.6 µM [rising, partial curve, poor fit] | –
21 | O=C(CCc1ccccc1)N(Cc1cccnc1)c1nc2c(F)cccc2s1 | 35.5 µM [falling, single point] | 14.1 µM [rising, partial curve, poor fit]

Row | SMILES | AC50 [1] | AC50 [2]
22 | O=C(Nc1ccc(Cl)c(Cl)c1)OCc1cccnc1 | 0.291 µM [rising, full curve] | –
23 | O=C(NCCc1ccc(Cl)cc1)C1CCCN(S(=O)(=O)c2cnc[nH]2)C1 (stereo not drawn) | 16.4 µM [falling, partial curve] | –
24 | Cc1ccc(NC(=O)C(NC2CCCC2)c2ccccc2)cc1Cl (stereo not drawn) | 35.5 µM [falling, single point] | –
25 | C(=N\n1cnnc1)/c1ccc(OCc2ccccc2)cc1 | 3.55 µM [rising, full curve, poor fit] | –
26 | Cc1nc(SCC(=O)NCc2ccc3c(c2)OCO3)c(C#N)c2c1CCCC2 | 11.2 µM [falling, partial curve, poor fit] | –
27 | Cc1ccc(NC(=O)N2CCC(c3ccccc3)C2)cc1C (stereo not drawn) | 10 µM [falling, partial curve] and 11.2 µM [falling, partial curve] | –
28 | Cc1csc(NC(=O)CSC2=NS(=O)(=O)c3cc(F)ccc3N2)n1 | 4.61 µM [falling, full curve] | –
29 | N#CCCN(Cc1cccs1)C(=O)Nc1ccccc1 | 2.24 µM [rising, partial curve] | –
30 | COc1ccc2sc(NCc3ccccc3)nc2c1 | 10 µM [falling, partial curve, poor fit] | –
31 | O=C(c1ccccc1/S(=N/S(=O)(=O)c1ccccc1)N1CCOCC1)N1CCOCC1 (stereo not drawn) | 0.461 µM [rising, full curve] | –
32 | O=C(N/N=C/c1c(O)ccc2ccccc12)c1cccnc1 | 35.5 µM [falling, single point] | –
33 | N#Cc1c2ccc(OCC(=O)NCc3ccco3)cc2n2ccccc12 | 1.26 µM [rising, partial curve, poor fit] | –
34 | COc1ccc(N2C(=O)C3C(c4ccc(OC)cc4O)NC(Cc4ccccc4)(C(=O)O)C3C2=O)cc1 (stereo not drawn) | 35.5 µM [falling, single point] | –
35 | CCCC1CCc2c(sc(N)c2C(N)=O)C1 (stereo not drawn) | 5.8 µM [rising, full curve, poor fit] | –
36 | COc1ccccc1OCc1ccc(C(=O)NN)o1 | 1.12 µM [falling, partial curve, poor fit] | –
37 | COc1ccc(-c2c(C)nn(-c3ccccc3)c2N)cc1 | 3.66 µM [falling, full curve] | –
38 | CCOC(=O)c1c(CN2CCN(CCO)CC2)n(C)c2cc(Br)c(OC)cc12 | 11.2 µM [falling, partial curve, poor fit] | –
39 | CC(Oc1ccc2oc(-c3ccccc3)c(C(=O)O)c2c1)C(=O)O (stereo not drawn) | 20.6 µM [rising, partial curve] | –
40 | O=c1cc(O)c(-c2ccc(Cl)cc2)c(Cl)[nH]1 | 1.12 µM [falling, partial curve, poor fit] | –
41 | CCOC(=O)Cc1cc(=O)n2[nH]c(C)c(-c3ccccc3)c2n1 | 31.6 µM [falling, single point] | –
42 | COc1ccc(C(=O)N/C(=C\c2ccccc2)C(=O)NC(CCSC)C(=O)O)cc1 (stereo not drawn) | 3.55 µM [falling, single point] | –

Row | SMILES | AC50 [1] | AC50 [2]
43 | Cc1ccc(-n2c(C)nnc2SCC(=O)N(C)c2c(N)n(Cc3ccccc3)c(=O)[nH]c2=O)cc1 | 8.2 µM [rising, partial curve] | 25.9 µM [falling, partial curve, poor fit]
44 | O=C(CNC(=O)c1ccccc1Cl)N/N=C/c1ccc2c(c1)OCO2 | 7.08 µM [falling, partial curve, poor fit] | –
45 | O=c1nc(N/N=C/C=C/c2ccccc2)cn[nH]1 | 0.891 µM [falling, full curve, poor fit] | –
46 | CC1CCN(C(=O)/C=C/c2ccc(C(C)(C)C)cc2)CC1 | 10.3 µM [rising, partial curve] | –
47 | COc1ccc(-n2c(SCC(=O)NC3CC3)nc3ccccc3c2=O)cc1OC | 2.59 µM [rising, full curve, poor fit] | –
48 | O=C1N=C(N2CCN(c3ccccc3)CC2)S/C1=C\c1cn[nH]c1-c1ccccc1 | 20.6 µM [falling, partial curve] | –
49 | CCc1ccccc1NC(=O)c1cc(-c2ccco2)on1 | 14.1 µM [falling, partial curve, poor fit] | –
50 | Cc1ccc(N=CC2=C(O)CC(c3ccco3)CC2=O)cc1 (stereo not drawn) | 31.6 µM [falling, single point] | –
51 | O=C(COc1ccccc1C(=O)c1cnn(-c2ccccc2)c1)Nc1ccccc1 | 13 µM [falling, partial curve] | –
52 | COC(=O)c1ccc(-c2ccc(/C=N/N3C(=O)C4C5C=CC(C6CC56)C4C3=O)o2)cc1 (stereo not drawn) | 11.6 µM [falling, partial curve] | –
53 | CN(C)C(=O)c1ccc(NC(=O)COC(=O)C2(c3ccccc3)CCCC2)cc1 | 29.1 µM [falling, single point] | –
54 | CCN(CC)C(=O)CSC(=Nc1ccccc1F)NC#N | 5.8 µM [falling, full curve, poor fit] | –
55 | COc1cc2c(cc1O)CC[C@@H]1[C@@H]2CC[C@]2(C)[C@@H](O)CC[C@@H]12 | 12.6 µM [rising, single point] | 12.6 µM [falling, partial curve]
56 | CC1CCCC(NC(=O)c2n[nH]c(=O)c3ccccc23)C1C (stereo not drawn) | 3.98 µM [falling, partial curve, poor fit] | –
57 | COc1ccc(OC)c(NC(=O)CCC(=O)Nc2nnc(C(F)(F)F)s2)c1 | 2 µM [rising, full curve, poor fit] | –
58 | Cn1cnnc1SCC(=O)NCCc1ccccc1 | 2.91 µM [falling, single point] | –
59 | CCOC(=O)Cc1csc(NC(=O)COc2cccc(C)c2)n1 | 7.94 µM [falling, partial curve] | –
60 | Cc1ccc(NC(=O)c2ccc(CSc3ccccn3)cc2)cc1 | 8.91 µM [falling, partial curve] | –
61 | CCN(CC)c1ccc(/C=N/NC(=O)c2ccco2)cc1 | 29.1 µM [falling, single point] | 18.4 µM [falling, single point]
62 | CC(C)N1CCN(CC#Cc2ccccc2)CC1CCO (stereo not drawn) | 20 µM [rising, single point] | –
63 | COc1ccc(-c2c3c(nc4sc5c(=O)[nH]c(C)nc5c24)CCC3)cc1 | 17.8 µM [rising, partial curve, poor fit] | –

In another format: entries from further up.
Row,SMILES,AC50 [1],AC50 [2]
51,O=C(COc1ccccc1C(=O)c1cnn(-c2ccccc2)c1)Nc1ccccc1,"13 µM [falling, partial curve]",–
52,COC(=O)c1ccc(-c2ccc(/C=N/N3C(=O)C4C5C=CC(C6CC56)C4C3=O)o2)cc1 (stereo not drawn),"11.6 µM [falling, partial curve]",–
53,CN(C)C(=O)c1ccc(NC(=O)COC(=O)C2(c3ccccc3)CCCC2)cc1,"29.1 µM [falling, single point]",–
54,CCN(CC)C(=O)CSC(=Nc1ccccc1F)NC#N,"5.8 µM [falling, full curve, poor fit]",–
55,COc1cc2c(cc1O)CC[C@@H]1[C@@H]2CC[C@]2(C)[C@@H](O)CC[C@@H]12,"12.6 µM [rising, single point]","12.6 µM [falling, partial curve]"
